PubChem BioAssay AID743121 – NCATS | 2013
In all, the deposit lists about 26,000 reagents; this is a part drawn at random. 167 of them (0.63%) were called active. 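Calls are per gene from RSA p-values that are not deposited; an individual active-marked siRNA can sensitise only weakly.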 The numbers tell different reagents against one gene apart.

Screen: 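Genes whose silencing strengthens cell killing by camptothecin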 (primary screen)
System: MDA-MB-231 cells, a human breast cancer line
Reagent: single siRNA against human genes, 20 nM siRNA (0.8 pmol per well)
Time to read-out: 120 h (drug added 48 h after transfection, read 72 h later)
Challenge: camptothecin 20 nM (about EC30) for 72 h; vehicle 0.1% DMSO in parallel plates
Measured: 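Cell viability by ATP luminescence (CellTiter-Glo) as % of non-targeting siRNA wells, and the log2 ratio of viability without drug over viability with camptothecin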
Reading the numbers: log2 vehicle/camptothecin viability: higher = stronger sensitisation to camptothecin; viability with camptothecin and viability without drug: higher = more viable cells
Rule for the call: 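Active genes have an RSA gene-level p-value below 0.001, computed from the ratios of their separate siRNAs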

gene knocked down | siRNA no. | log2 vehicle/camptothecin viability | viability with camptothecin (% of control) | viability without drug (% of control) | outcome
ERCC6 | 1 | -0.0748 | 99.2 | 94.2 | inactive
ERCC6 | 2 | -0.0118 | 86 | 85.3 | inactive
ERCC6 | 3 | -0.163 | 117 | 104 | inactive
ERCC6 | 4 | 0.836 | 25.6 | 45.6 | inactive
RNF186 | 1 | 0.28 | 66.6 | 80.9 | inactive
RNF186 | 2 | 0.144 | 53.7 | 59.3 | inactive
RNF186 | 3 | -0.122 | 89.3 | 82.1 | inactive
RNF186 | 4 | -0.491 | 93.8 | 66.8 | inactive
ACP3 | 1 | -0.222 | 88.8 | 76.1 | inactive
ACP3 | 2 | -0.133 | 89.7 | 81.8 | inactive
ACP3 | 3 | -0.509 | 98.3 | 69.1 | inactive
ACP3 | 4 | -0.192 | 76.8 | 67.2 | inactive
RFC4 | 1 | -0.163 | 74.2 | 66.2 | inactive
RFC4 | 2 | -0.346 | 89 | 70 | inactive
RFC4 | 3 | -0.523 | 60 | 41.8 | inactive
MCEMP1 | 1 | -0.042 | 86.9 | 84.4 | inactive
MCEMP1 | 2 | -0.637 | 45.1 | 29 | inactive
MCEMP1 | 3 | 0.0992 | 81.8 | 87.6 | inactive
MCEMP1 | 4 | -0.393 | 33 | 25.2 | inactive
TLL1 | 1 | -0.312 | 58.2 | 46.9 | inactive
TLL1 | 2 | -0.00512 | 111 | 110 | inactive
TLL1 | 3 | -0.403 | 65.1 | 49.3 | inactive
TLL1 | 4 | -0.0899 | 110 | 104 | inactive
LTBP1 | 1 | 0.116 | 69.8 | 75.7 | inactive
LTBP1 | 2 | -0.301 | 87.8 | 71.2 | inactive
LTBP1 | 3 | -0.0868 | 86.8 | 81.7 | inactive
LTBP1 | 4 | -0.239 | 74.2 | 62.8 | inactive
NIPA1 | 1 | -0.0609 | 78.8 | 75.5 | inactive
NIPA1 | 2 | -0.497 | 85.4 | 60.5 | inactive
NIPA1 | 3 | -0.607 | 90.5 | 59.4 | inactive
NIPA1 | 4 | -0.126 | 101 | 92.9 | inactive

The list goes on, starting with the last 6 of the part before.
gene knocked down | siRNA no. | log2 vehicle/camptothecin viability | viability with camptothecin (% of control) | viability without drug (% of control) | outcome
LTBP1 | 3 | -0.0868 | 86.8 | 81.7 | inactive
LTBP1 | 4 | -0.239 | 74.2 | 62.8 | inactive
NIPA1 | 1 | -0.0609 | 78.8 | 75.5 | inactive
NIPA1 | 2 | -0.497 | 85.4 | 60.5 | inactive
NIPA1 | 3 | -0.607 | 90.5 | 59.4 | inactive
NIPA1 | 4 | -0.126 | 101 | 92.9 | inactive
ABCA7 | 1 | 0.0983 | 46.8 | 50.1 | inactive
ABCA7 | 2 | -0.0288 | 96.7 | 94.8 | inactive
ABCA7 | 3 | -0.383 | 89.5 | 68.6 | inactive
ABCA7 | 4 | 0.621 | 70.9 | 109 | inactive
AMACR | 1 | -0.358 | 113 | 88.1 | inactive
AMACR | 2 | -0.2 | 71 | 61.8 | inactive
AMACR | 3 | -0.405 | 106 | 79.8 | inactive
FOXC2 | 1 | -0.0811 | 61.2 | 57.8 | inactive
FOXC2 | 2 | -0.198 | 97.8 | 85.2 | inactive
FOXC2 | 3 | -0.252 | 93.6 | 78.6 | inactive
FOXC2 | 4 | -0.0501 | 89.1 | 86.1 | inactive
GRN | 1 | -0.0593 | 102 | 97.5 | inactive
GRN | 2 | 0.835 | 12.3 | 21.9 | inactive
GRN | 3 | 0.289 | 77.6 | 94.8 | inactive
GRN | 4 | 0.25 | 1.51 | 1.8 | inactive
RAX | 1 | -0.497 | 82.3 | 58.3 | inactive
RAX | 2 | -0.0941 | 45.7 | 42.8 | inactive
RAX | 3 | 0.000173 | 41.2 | 41.2 | inactive
RAX | 4 | -0.688 | 24.2 | 15 | inactive
PLXNB1 | 1 | 0.00712 | 100 | 101 | inactive
PLXNB1 | 2 | -0.402 | 81.8 | 61.9 | inactive
PLXNB1 | 3 | -0.0451 | 91.2 | 88.4 | inactive
PLXNB1 | 4 | -0.581 | 93.5 | 62.5 | inactive
UCHL1 | 1 | 0.0325 | 30.5 | 31.2 | inactive
UCHL1 | 2 | 0.0348 | 92.8 | 95 | inactive
UCHL1 | 3 | -0.0762 | 96.4 | 91.5 | inactive
UCHL1 | 4 | -0.0177 | 36.1 | 35.6 | inactive
MXI1 | 1 | -0.229 | 83.1 | 70.9 | inactive
MXI1 | 2 | -0.104 | 96.8 | 90.1 | inactive
MXI1 | 3 | -0.477 | 70.6 | 50.7 | inactive
MXI1 | 4 | 0.114 | 14 | 15.1 | inactive
PRPF19 | 1 | -0.518 | 78.5 | 54.8 | inactive
PRPF19 | 2 | -0.322 | 70.2 | 56.2 | inactive
PRPF19 | 3 | -0.487 | 64.1 | 45.7 | inactive
PRPF19 | 4 | -0.341 | 68.6 | 54.2 | inactive
SCAP | 1 | -0.406 | 75.1 | 56.7 | inactive
SCAP | 2 | 0.258 | 59.7 | 71.4 | inactive
SCAP | 3 | 0.425 | 63.2 | 84.9 | inactive
SCAP | 4 | -0.277 | 91.9 | 75.8 | inactive
